Tested on: pulmonary fibrosis induced by bleomycin in rat
Test: Asiatic acid in bleomycin-induced pulmonary fibrosis rat model
Format: in vivo, SD male rats
Settings: mean
Excerpt: The pulmonary fibrosis animal model was induced by bleomycin in rat according to the methods described by Lazo J S, Hoyt D G, Sebti S M, Pitt B R. in Pharmacol Ther. 1990: 47:347-58. In this article, praquat, bleomycin and amiodrone are three routinely used chemical agent to induce lung fibrosis is rodents, e.g. mice, rat and Chinese hamsters as well as primates, e.g. baboon and cynomolgous monkey etc. there are also reports describing using rabbit or dog as model animal for such study. Different groups were able to generate lung fibrosis in animal models through different administration routes. For example, 3 various pulmonary fibrosis animal models using Co^60 to radiate rat, bleomycin or CCl4 injection into abdominal cavity of mice or rat respectively were generated. […] Specifically, diffusive stromal lung fibrosis model induced by tracheal bleomycin dripping is the most commonly used animal model. The advantage of this method is that the model can be obtained with once bleomycin dripping without repeated venous or abdominal injections, therefore limiting the influences to other organs caused by systematic administrations. It also lowers the experimental cost. The development of pulmonary fibrosis from alveolitis can be observed in 4 weeks, which is very similar to the pulmonary fibrosis pathological development in human being.
1. Animal: SD male rats with weight raging between 200-250 g, purchased from SLAC.
3. Dosage: Asiatic acid, 3, 9, […], po for 28 days.
Male SD rats were lay down flat on operating table and anesthetize with 3% Secobarbital. The trachea was exposed after sterilization of cervical part with alcohol. The needle was then inserted into tracheal cartilage interspace. Bleomycin at 5 mg/kg was dipped in. Afterwards, the rats were reared to evenly distribute bleomycin in the lung. The trachea was then sutured. […] The regimen was initiated on the second day. Sham-operated and untreated group received saline. After 28 days of treatment, lung weight, hydroyproline content, pathological section and CT scan were measured or conducted.
After 28 days on asiatic acid, rats were sacrificed and dissected. The body and lung weight were measured respectively and used to calculate lung weigh coefficient.
After 28 days on Asiatic acid, hydroxyproline content in lung was measured. The results are as follows:
After 28 days on asiatic acid, lung CT scans were performed to each group of experimental rats.
After 28 days on asiatic acid, the rats were sacrificed and dissected. Both lungs were harvested. The specimen were embedded and fixed then subjected to HE staining. The focus of infection were observed under microscope with ⅓, ⅔ and 3/3 Vf*10 to conduct semi-quantative analysis.

SMILES	Body Weight (first experiment, dexmethasone 0.6 mg/kg po 28 days) [g]	Body Weight (second experiment, dexmethasone 0.6 mg/kg po 28 days) [g]	Body Weight (third experiment, dexmethasone 0.6 mg/kg po 28 days) [g]	Body Weight (first experiment, asiatic acid high dose 27 mg/kg po 28 days) [g]	Body Weight (first experiment, asiatic acid low dose 3 mg/kg po 28 days) [g]	Body Weight (first experiment, asiatic acid medium dose 9 mg/kg po 28 days) [g]	Body Weight (second experiment, asiatic acid high dose 27 mg/kg po 28 days) [g]	Body Weight (second experiment, asiatic acid low dose 3 mg/kg po 28 days) [g]	Body Weight (second experiment, asiatic acid medium dose 9 mg/kg po 28 days) [g]	Body Weight (third experiment, asiatic acid high dose 27 mg/kg po 28 days) [g]	Body Weight (third experiment, asiatic acid low dose 3 mg/kg po 28 days) [g]	Body Weight (third experiment, asiatic acid medium dose 9 mg/kg po 28 days) [g]
C[C@@H]1C[C@H]2[C@@H]3CCC4=CC(=O)C=C[C@]4(C)[C@@]3(F)[C@@H](O)C[C@]2(C)[C@@]1(O)C(=O)CO [Dexmethasone, Dexamethasone, reference compound]	269.40	253.77	269.40									
C[C@H]1[C@H](C)CC[C@]2(C(=O)O)CC[C@]3(C)C(=CC[C@@H]4[C@@]5(C)C[C@@H](O)[C@H](O)[C@@](C)(CO)[C@@H]5CC[C@]43C)[C@H]12 [Asiatic acid, asiatic acid]				334.00	322.22	311.78	349.08	307.37	315.81	334.00	322.22	311.78
